A short description of the test: qHTS Assay for Lipid Storage Modulators in Drosophila S3 Cells.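 On cell number change: cells counted by Cell Tracker Red CMTPX staining in the red channel.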 The following applies: BODIPY lipid droplet fluorescence, 18-24 h; for cell number change: measured here: cell count max response, cells fed with added oleic acid. The procedure, abridged:
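Drosophila S3 cells got compounds at several concentrations plus oleic acid (400 uM solution). Laser-scanning cytometry with 488 nm excitation read lipid droplets at 500-530 nm and cells at 575-640 nm. Percent activity was relative to 20 uM Triacsin C.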

The mark [1] stands for this setting: measured here: lipid fluorescence (Fed channel) AC50, cells fed with added oleic acid.
[2] abbreviates: measured here: cell number channel AC50, cells fed with added oleic acid.

SMILES strings stand for the structures. This is one part of the list. These are further read-outs of the screen, such as a control signal, another cell line or another target. No call is given for them. Compounds called inactive in the main read-out are mostly missing here. Words in brackets tell the shape of the fitted curve; partial curves, single points and poor fits give uncertain potencies.

By AC50 is commonly meant the midpoint of the concentration-response curve, whichever way the signal moves. Read a high AC50 as activity only at high concentration.

`Cc1ccc2oc(C(=O)N3CCC(C(N)=O)(N4CCCCC4)CC3)c(C)c2c1`: under setting [1], the half-maximal activity concentration (AC50) was 29.1 µM [falling, single point].
For `CCOC(=O)c1[nH]cnc1N=Nc1c(O)ccc2ccccc12`, the cell number change was -5.98%. Besides, under setting [1], the concentration at half-maximal activity (AC50) was 25.9 µM [falling, single point].
Regarding `O=C(c1ccc(F)cc1)N1CCCC(c2nc(-c3ccncc3)no2)C1` (configuration not stated), the cell number change is 14.8%. Under setting [1], the AC50 is 29.1 µM [rising, single point].
Consider `Cc1ccccc1-n1c(O)c(/C=N/N2CCCCC2c2cccnc2)c(=O)[nH]c1=O` (configuration not stated), for which the cell number change was found to be 5.47%. Besides, under setting [1], the AC50 is 0.731 µM [falling, full curve, poor fit].
In the case of `C=CCN(C(C)=O)C1CC(=O)N(c2ccc(OCCC)cc2)C1=O` (configuration not stated), the half-maximal activity concentration (AC50) under setting [2] is 2.31 µM [rising, single point].
For the molecule `CCOC(=O)c1c(-c2ccccc2)oc2ccc(OCC(=O)O)cc12`, the cell number change is 12.6%. Besides, under setting [2], the AC50 is 0.082 µM [falling, full curve, poor fit].
As to `COC(=O)c1ccc(CN2CCCC(C(=O)Nc3cccc(-n4cccn4)c3)C2)cc1` (configuration not stated), the cell number change turned out to be 5.01%. Further, under setting [1], the concentration at half-maximal activity (AC50) is 0.58 µM [rising, single point].
In the case of `COc1cccc(N(C(=O)CNC(=O)c2ccco2)C(C(=O)NC2CCCCC2)c2ccncc2)c1` (configuration not stated), the cell number change worked out at 17.4%. For the same molecule, the AC50 under setting [2] was 1.16 µM [rising, single point]. Moreover, the concentration at half-maximal activity (AC50) under setting [1] was 0.164 µM [falling, full curve, poor fit].
On to `COc1ccc(CN2CCC(N3CC(C)OC(C)C3)CC2)c(OC)c1OC` (configuration not stated), for which the cell number change was -3.56%. Besides, under setting [1], the AC50 was 16.4 µM [falling, single point].
As to `c1ccc(CCOn2ccnc2)cc1`, the cell number change came out at 28.8%. Also, the AC50 under setting [1] was 25.9 µM [rising, partial curve, poor fit].
Turning to `CCOc1cc(C#N)c(NC(=O)Cn2nnc3ccccc32)cc1OCC`, the cell number change is -2.44%. Moreover, under setting [1], the AC50 is 0.231 µM [rising, full curve, poor fit].
Consider `CNS(=O)(=O)c1c(C)cc(C)c(N(C)S(=O)(=O)c2ccccc2)c1C`, for which the cell number change is -10.7%. Moreover, under setting [1], the AC50 is 0.00517 µM [falling, full curve, poor fit].
For `COc1cc(/C=N/n2cnnc2)ccc1OCCOc1ccccc1`, the cell number change is -7.41%. Also, under setting [1], the AC50 is 5.8 µM [falling, single point].
Consider `O=C(NCC1CCCN(C(=O)c2cc(Cl)ccc2F)C1)c1ccc(F)cc1` (configuration not stated), for which the cell number change was determined as 57.3%. Also, the AC50 under setting [2] is 18.4 µM [rising, single point].
Take `Cc1[nH]c2ccccc2c1C(=O)C(=O)Nc1ccc2c(c1)OCCO2`: the cell number change was -18.5%.
Regarding `Cc1c(C(=O)N2CCN(C3CCS(=O)(=O)C3)CC2)oc2ccc(Cl)cc12` (configuration not stated), the cell number change is -25%. Moreover, the AC50 under setting [1] was 6.51 µM [falling, single point].
For the molecule `CCOC(=O)N1CCC(N2C(=O)c3ccccc3C2Nc2ccccc2)CC1` (configuration not stated), the cell number change turned out to be 14.1%. Under setting [2], the AC50 was 0.58 µM [rising, full curve, poor fit].
For `O=C(CN(Cc1ccc(Cl)cc1)C(=O)CN1C(=O)COc2ccccc21)NC1CCCC1`, the cell number change came to 76.1%. Also, the concentration at half-maximal activity (AC50) under setting [2] is 25.9 µM [rising, single point]. The concentration at half-maximal activity (AC50) under setting [1] is 0.58 µM [rising, single point].
In the case of `Cc1cc2c(c(=O)n1Cc1cccnc1)C(Cc1ccccc1)C(C#N)=C(N)O2` (configuration not stated), under setting [1], the AC50 is 0.651 µM [rising, full curve, poor fit].
For `CCCCCn1c(Sc2nc3ccccc3s2)nc2c1c(=O)[nH]c(=O)n2C`, the cell number change was -21.2%. For the same molecule, under setting [2], the AC50 is 2.91 µM [rising, single point]. Further, the AC50 under setting [1] was 3.26 µM [rising, partial curve].
Regarding `CCc1ccccc1NS(=O)(=O)c1ccc(OC)c2ncccc12`, the cell number change was found to be 10.1%. Also, the half-maximal activity concentration (AC50) under setting [1] is 29.1 µM [falling, single point].
On to `COc1cccc(NC(=O)C(C)NS(=O)(=O)c2ccc(Br)cc2)c1` (configuration not stated), for which the cell number change was -13.1%. The AC50 under setting [1] is 0.00411 µM [rising, full curve, poor fit].
For `CCCc1nn2c(=O)cc(COc3cccc(NC(=O)c4ccco4)c3)nc2s1`, the cell number change was -11.9%. The AC50 under setting [2] is 4.11 µM [falling, single point].
On to `O=C(Nc1ccc(F)cc1)Nc1nnc(Cc2ccccc2)s1`, for which the cell number change came to 3.28%. Also, the half-maximal activity concentration (AC50) under setting [1] is 0.206 µM [rising, partial curve].
Regarding `Cc1cc(=O)n2nc(N3CCCC3C(=O)NCCCN3CC(C)CC(C)C3)sc2n1` (configuration not stated), under setting [1], the concentration at half-maximal activity (AC50) is 0.103 µM [falling, full curve].
On to `CC(=O)c1cccc(NC(=O)C2(c3ccccc3)CC2(Cl)Cl)c1` (configuration not stated), for which the cell number change was -34.1%.
For `CCOC(=O)c1cnc2c(Cl)cccc2c1NCCN1CCOCC1`, the cell number change stood at 3.5%.
On to `Cc1ccc(NC(=O)c2cccc(NC(=O)/C=C/c3ccco3)c2)cc1C`, for which the cell number change was -20.4%. Under setting [1], the half-maximal activity concentration (AC50) was 8.2 µM [falling, partial curve].
For `O=S(=O)(c1ccc(Cl)cc1)N1CCN(Cc2cccnc2)CC1`, the AC50 under setting [1] is 35.5 µM [rising, single point].
For `Cc1ccc(N2C(=O)N(CC(=O)Nc3ccccc3C(F)(F)F)C(=O)C2C)cc1` (configuration not stated), the cell number change is -43.5%. For the same molecule, the AC50 under setting [2] was 32.6 µM [falling, single point]. Under setting [1], the half-maximal activity concentration (AC50) is 2.31 µM [rising, partial curve].
With `COc1cccc(C(=O)Nc2cccc(NC(=O)c3ccccc3Cl)c2)c1`, the cell number change is -34.1%. Besides, under setting [2], the half-maximal activity concentration (AC50) was 18.4 µM [falling, partial curve, poor fit]. The concentration at half-maximal activity (AC50) under setting [1] was 6.51 µM [falling, single point].
Take `CCOc1ccc(OCCN(C)Cc2ccccc2)cc1`: the cell number change is -1.14%. Moreover, under setting [1], the concentration at half-maximal activity (AC50) is 29.1 µM [falling, single point].
For the molecule `Cc1ccccc1-c1nc2ccccc2o1`, the cell number change is 37.4%. The AC50 under setting [2] is 2.91 µM [rising, full curve]. Further, under setting [1], the AC50 is 9.2 µM [rising, partial curve].
Consider `CCNC(=O)CN1C(=O)NC2(CCCCCC2)C1=O`, for which the cell number change worked out at 12.5%. For the same molecule, the concentration at half-maximal activity (AC50) under setting [1] was 6.51 µM [falling, single point].
In the case of `O=C(NCc1ccccc1Cl)c1ccccc1CCc1ccccc1`, the cell number change was found to be 36.9%. In addition, the AC50 under setting [2] was 8.2 µM [rising, partial curve]. Also, under setting [1], the concentration at half-maximal activity (AC50) is 18.4 µM [rising, single point].
Turning to `CSc1nc2ncc3c(n2n1)CC(C)(C)CC3=O`, the cell number change is -40.8%. The AC50 under setting [2] was 32.6 µM [falling, single point].
With `CC(Nc1ncnc2ccccc12)c1ccccc1` (configuration not stated), the cell number change is -36.8%. Besides, the AC50 under setting [2] is 3.26 µM [falling, full curve, poor fit]. Moreover, the AC50 under setting [1] was 1.64 µM [falling, partial curve].
Take `COCCN=c1scc(C)n1/N=C/C1CC2C=CC1C2` (configuration not stated): the cell number change is 70.5%. Also, the AC50 under setting [2] was 0.206 µM [rising, full curve, poor fit]. The AC50 under setting [1] was 0.082 µM [rising, full curve, poor fit].
For the molecule `Cc1ccc(S(=O)(=O)NC(CC(=O)N2CCOCC2)c2ccco2)cc1` (configuration not stated), the cell number change was -66.4%. Further, the AC50 under setting [2] is 2.91 µM [falling, full curve]. For the same molecule, under setting [1], the half-maximal activity concentration (AC50) was 2.59 µM [falling, full curve].
Regarding `COc1cccc2cc(C(=O)CS(=O)(=O)c3ccc(C(C)(C)C)cc3)c(=O)oc12`, the cell number change was -17.7%. The AC50 under setting [1] is 11.6 µM [rising, single point].
On to `COC(=O)CSc1nnc(SCc2ccccc2)s1`, for which the cell number change is -0.523%.
As for `CCOP(=O)(OCC)C(NC(=O)Nc1ccccc1)C(N)=O` (configuration not stated), the cell number change is -36.1%.
As for `Cc1ccc(N2CCCn3c2nc2c3c(=O)n(CCN3CCOCC3)c(=O)n2C)cc1`, the cell number change was -35.1%. The AC50 under setting [2] is 0.731 µM [falling, full curve]. Under setting [1], the AC50 is 9.2 µM [falling, partial curve].
Turning to `Cc1cc(C)nc(NC(=O)CSc2nc3cc(Cl)ccc3s2)n1`, under setting [1], the AC50 is 0.58 µM [rising, single point].
As for `CCOc1ccccc1NC(=O)c1ccccc1NS(C)(=O)=O`, the AC50 under setting [1] was 3.66 µM [rising, partial curve].
Take `CCOc1ccc(C(=O)Nc2ccccc2N2CCCC2)cc1`: the cell number change came out at 7%. Also, the half-maximal activity concentration (AC50) under setting [1] was 0.13 µM [falling, full curve, poor fit].
For the molecule `Cn1cnc([N+](=O)[O-])c1SCC(O)CCl` (configuration not stated), the cell number change was -25.7%. The concentration at half-maximal activity (AC50) under setting [2] was 0.103 µM [falling, full curve, poor fit].
With `CCC(=O)Nc1ccc2oc(-c3cccc(C)c3)nc2c1`, the half-maximal activity concentration (AC50) runs as follows: under setting [2], 3.26 µM [rising, partial curve]; under setting [1], 3.66 µM [rising, partial curve].
As for `COC(=O)c1ccc(CNC(=O)C(C)N=C2NS(=O)(=O)c3ccccc32)cc1` (configuration not stated), the cell number change is -7.48%.
As to `CCCCCc1cc(=O)oc2c(C(CCN3CCCCC3)c3cc(OC)c(OC)c(OC)c3)c(OC)cc(OC)c12` (configuration not stated), the cell number change is -51.4%. Besides, the AC50 under setting [2] was 18.4 µM [falling, single point]. Besides, the concentration at half-maximal activity (AC50) under setting [1] was 29.1 µM [falling, single point].
Consider `CCc1nn(CCCC(=O)Nc2ccc(C)cc2C)c(=O)c2cc3occc3n12`, for which the cell number change was -15.8%. For the same molecule, the half-maximal activity concentration (AC50) under setting [2] is 0.259 µM [rising, full curve, poor fit].
With `CC(C)Cn1cnc2c(=O)oc3ccccc3c21`, the cell number change stood at 125%. For the same molecule, under setting [2], the AC50 is 14.6 µM [rising, partial curve]. In addition, the AC50 under setting [1] was 2.31 µM [rising, partial curve].
For `O=C(NCC(c1cccnc1)N1CCN(c2ccc(F)cc2)CC1)c1ccc2c(c1)OCO2` (configuration not stated), the cell number change turned out to be 99.2%. Under setting [2], the AC50 was 0.164 µM [rising, full curve]. The AC50 under setting [1] was 4.11 µM [rising, partial curve].
In the case of `CSc1ccc(CN(C)C(=O)c2cc(=O)c3ccccc3o2)cc1`, the cell number change turned out to be 10.8%.
Turning to `COc1ccccc1/C=C/C=N/N1CCN(Cc2ccccc2)CC1`, the cell number change is -16.7%. Under setting [2], the concentration at half-maximal activity (AC50) was 0.0164 µM [falling, full curve, poor fit]. Further, under setting [1], the half-maximal activity concentration (AC50) is 29.1 µM [falling, single point].
`NS(=O)(=O)c1ccc(CCNC(=O)CNS(=O)(=O)c2cccc(Br)c2)cc1`: the cell number change is 193%.
`CCc1ccccc1OCc1nnc(N)s1`: the cell number change is 9.19%. Moreover, the half-maximal activity concentration (AC50) under setting [1] was 4.11 µM [rising, full curve, poor fit].
In the case of `CC(C)CCC(C(=O)O)C(C)CC(=O)NC1CCCCC1` (configuration not stated), the cell number change is -5.03%. Further, the AC50 under setting [1] was 0.517 µM [falling, partial curve, poor fit].
For the molecule `COc1ccc(NC(=O)CSc2nc(N)c3cc4c(nc3n2)CC(C)(C)OC4)cc1`, the concentration at half-maximal activity (AC50) under setting [2] is 2.31 µM [falling, partial curve, poor fit].

Source of the values: PubChem BioAssay AID2685 (National Center for Advancing Translational Sciences (NCATS), 2010).
